Laboratory results from patent US20190077874A1, “METHODS AND COMPOSITIONS FOR THE TREATMENT OF TUBEROUS SCLEROSIS” (National Tuberous Sclerosis Association, Inc., priority 2017, published 2019).
“Also recorded” adds a separate entry of the source. At least one compound was matched to its structure with a doubt left.

Tests used:
IL-1β [1] = details: TSC mouse model; cited from earlier work
TNF-α = assay: qPCR of TNF-α RNA expression in brain of Tsc1 homozygous knockout mice treated with rapamycin; type: in vivo, mouse; details: brain qPCR at day 49; short (2 weeks) or long (4 weeks) rapamycin 3 mg/kg IP daily vs vehicle alone; normalized to vehicle-treated knockout mice
IL-1β [2] = assay: qPCR of IL-1β RNA expression in brain of Tsc1 homozygous knockout mice treated with rapamycin; type: in vivo, mouse; details: brain qPCR at day 49; short (2 weeks) or long (4 weeks) rapamycin 3 mg/kg IP daily vs vehicle alone; normalized to vehicle-treated knockout mice
[3] = test system: TSC patients with medically refractory epilepsy and SEGAs; details: case studies of TSC patients; cited from earlier work
VEGF-D = assay: qPCR of VEGF-D RNA expression in brain of Tsc1 homozygous knockout mice treated with rapamycin; type: in vivo, mouse; details: brain qPCR at day 49; short (2 weeks) or long (4 weeks) rapamycin 3 mg/kg IP daily vs vehicle alone; normalized to vehicle-treated knockout mice
CXCL10 = details: TSC mouse model; cited from earlier work
TLR4 = assay: qPCR of TLR4 RNA expression in brain of Tsc1 homozygous knockout mice treated with rapamycin; type: in vivo, mouse; details: brain qPCR at day 49; short (2 weeks) or long (4 weeks) rapamycin 3 mg/kg IP daily vs vehicle alone; normalized to vehicle-treated knockout mice
TSC mouse model = details: cited from earlier work
IBA1 = assay: qPCR of IBA1 RNA expression in brain of Tsc1 homozygous knockout mice treated with rapamycin; type: in vivo, mouse; details: brain qPCR at day 49; short (2 weeks) or long (4 weeks) rapamycin 3 mg/kg IP daily vs vehicle alone; normalized to vehicle-treated knockout mice

Structure (SMILES): CO[C@H]1C[C@@H]2CC[C@@H](C)[C@@](O)(O2)C(=O)C(=O)N2CCCC[C@H]2C(=O)O[C@H]([C@H](C)C[C@@H]2CC[C@@H](O)[C@H](OC)C2)CC(=O)[C@H](C)/C=C(\C)[C@@H](O)[C@@H](OC)C(=O)[C@H](C)C[C@H](C)/C=C/C=C/C=C/1C [rapamycin]
- increased production of IL-1β (IL-1β [1]): reverse the increased production
- expression levels of TNF-α (TNF-α): did not confer differential expression
- expression of IL-1β (IL-1β [2]): did not confer differential expression
- SEGA size [3]: dramatic reduction
- seizure frequency [3]: dramatic reduction
- expression of VEGF-D (VEGF-D): did not confer differential expression
- increased production of CXCL10 (CXCL10): reverse the increased production
- expression of TLR4 (TLR4): not affected; also recorded: did not confer differential expression
- seizures (TSC mouse model; TSC mouse model, Zhang et al.): reduced seizures
- seizure development (TSC mouse model; conditionally inactivated Tsc1 knockout (KO) mouse model, over the course of treatment): significant decrease
- expression of IBA1 (IBA1): did not confer differential expression
